Measured values from doi:10.1101/2021.08.20.457064.
Where two headings read alike, the source gives them in different places. Results are given in words; binding and its absence hold for the method and conditions named. Binding seen in cells or lysates may run through a third protein. Some binding calls cover weakened binding; strength is not graded here. For some assays here: Sequences can lack the tags named with a protein.

By UniProt entry, the sequences of proteins in these tests, tags left out.
UniProt Q14318: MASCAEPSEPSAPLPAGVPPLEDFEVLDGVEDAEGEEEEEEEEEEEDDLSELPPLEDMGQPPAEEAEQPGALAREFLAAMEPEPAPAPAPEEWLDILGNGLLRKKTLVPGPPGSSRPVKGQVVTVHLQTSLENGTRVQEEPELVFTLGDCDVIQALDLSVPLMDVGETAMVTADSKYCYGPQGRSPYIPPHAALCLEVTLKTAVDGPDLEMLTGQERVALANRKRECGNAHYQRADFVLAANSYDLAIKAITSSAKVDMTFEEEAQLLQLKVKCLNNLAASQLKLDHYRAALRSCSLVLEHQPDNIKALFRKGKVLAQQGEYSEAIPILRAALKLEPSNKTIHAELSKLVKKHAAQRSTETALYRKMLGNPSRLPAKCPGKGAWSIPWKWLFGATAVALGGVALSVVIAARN
UniProt O35465: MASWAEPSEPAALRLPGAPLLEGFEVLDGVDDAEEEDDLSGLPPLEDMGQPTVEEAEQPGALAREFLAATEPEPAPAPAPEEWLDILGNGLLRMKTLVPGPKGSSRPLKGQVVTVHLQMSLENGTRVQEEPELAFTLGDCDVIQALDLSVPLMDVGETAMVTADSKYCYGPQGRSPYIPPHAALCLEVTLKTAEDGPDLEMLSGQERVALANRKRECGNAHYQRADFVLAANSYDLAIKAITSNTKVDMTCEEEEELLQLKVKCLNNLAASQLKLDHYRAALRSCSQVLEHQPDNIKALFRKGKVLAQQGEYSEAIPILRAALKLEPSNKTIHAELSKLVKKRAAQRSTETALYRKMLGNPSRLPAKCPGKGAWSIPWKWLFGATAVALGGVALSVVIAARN

T1: GFP-DLK (mouse) (UniProt Q60700)
T1 sequence: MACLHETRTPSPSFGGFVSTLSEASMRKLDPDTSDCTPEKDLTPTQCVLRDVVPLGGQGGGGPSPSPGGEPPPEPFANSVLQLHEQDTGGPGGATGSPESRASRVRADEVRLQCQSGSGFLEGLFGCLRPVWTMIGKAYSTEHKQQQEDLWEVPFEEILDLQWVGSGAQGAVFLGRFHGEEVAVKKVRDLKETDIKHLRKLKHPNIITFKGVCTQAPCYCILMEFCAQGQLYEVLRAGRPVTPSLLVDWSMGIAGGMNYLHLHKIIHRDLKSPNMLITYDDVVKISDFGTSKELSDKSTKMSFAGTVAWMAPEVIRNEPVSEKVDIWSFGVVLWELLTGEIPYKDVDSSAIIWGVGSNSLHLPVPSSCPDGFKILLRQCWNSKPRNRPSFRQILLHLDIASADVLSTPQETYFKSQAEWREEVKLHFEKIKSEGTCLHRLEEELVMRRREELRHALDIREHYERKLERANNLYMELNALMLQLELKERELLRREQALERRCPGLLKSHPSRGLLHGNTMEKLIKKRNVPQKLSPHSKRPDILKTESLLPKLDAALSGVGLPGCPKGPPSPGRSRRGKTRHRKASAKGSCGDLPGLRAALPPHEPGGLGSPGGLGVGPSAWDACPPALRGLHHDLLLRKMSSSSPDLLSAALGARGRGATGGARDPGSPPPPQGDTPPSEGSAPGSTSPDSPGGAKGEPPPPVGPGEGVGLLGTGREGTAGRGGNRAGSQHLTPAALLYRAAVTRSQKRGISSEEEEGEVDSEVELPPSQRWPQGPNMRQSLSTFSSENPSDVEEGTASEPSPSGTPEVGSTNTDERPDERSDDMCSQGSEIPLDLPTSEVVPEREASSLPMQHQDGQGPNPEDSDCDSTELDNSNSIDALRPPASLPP

T2: DLK K271R mutant (mouse) (UniProt Q60700)
T2 sequence: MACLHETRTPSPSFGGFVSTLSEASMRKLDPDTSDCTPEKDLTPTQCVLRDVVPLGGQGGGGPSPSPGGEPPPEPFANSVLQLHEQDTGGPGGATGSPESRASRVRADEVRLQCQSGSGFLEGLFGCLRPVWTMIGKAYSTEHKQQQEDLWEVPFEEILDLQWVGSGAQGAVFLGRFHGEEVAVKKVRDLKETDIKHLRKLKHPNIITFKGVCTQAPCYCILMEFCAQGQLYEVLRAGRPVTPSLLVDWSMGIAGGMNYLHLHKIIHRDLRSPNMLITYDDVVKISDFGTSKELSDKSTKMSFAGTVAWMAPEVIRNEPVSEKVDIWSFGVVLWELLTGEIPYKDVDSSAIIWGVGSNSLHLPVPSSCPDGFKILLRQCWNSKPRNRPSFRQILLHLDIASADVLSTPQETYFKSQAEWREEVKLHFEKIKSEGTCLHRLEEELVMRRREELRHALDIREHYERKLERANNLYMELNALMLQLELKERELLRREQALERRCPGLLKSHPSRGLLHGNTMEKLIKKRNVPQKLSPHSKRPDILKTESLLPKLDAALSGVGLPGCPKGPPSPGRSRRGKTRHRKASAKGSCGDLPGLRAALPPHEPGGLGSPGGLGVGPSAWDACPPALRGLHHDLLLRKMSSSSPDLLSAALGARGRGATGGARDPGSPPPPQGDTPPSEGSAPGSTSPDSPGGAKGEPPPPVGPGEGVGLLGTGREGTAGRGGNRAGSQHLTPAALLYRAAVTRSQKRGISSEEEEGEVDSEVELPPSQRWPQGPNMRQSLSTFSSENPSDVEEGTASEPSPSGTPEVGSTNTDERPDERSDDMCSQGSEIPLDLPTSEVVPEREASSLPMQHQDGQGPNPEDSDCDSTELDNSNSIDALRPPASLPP


Legend:
Assay in all cases: co-IP
[1] = biological target: T1, GFP-DLK (mouse)
[2] = biological target: T2, DLK K271R mutant (mouse)
[3] = biological target: T1, GFP-DLK (mouse); remark: listed apart in the source

binding [1] | binding [2] | binding [3] | Molecule
binds |  |  | human FKBP8 (from UniProt Q14318 1-412)
 |  | binds | FLAG-FKBPL (protein, UniProt O35450 1-347) METSPISPMNEKNTAQPQQREENAQQILNTAIPFRQRSPGLLPEALKVGVRPDPANQIVETQEIEHPVAGFEGDSDQFQVSTNEMAEHLQASDLWYCPDGSFVKKIIVPGHGLDKPKLGSKCQVLALGFPFGSGMPEGWTELTIGIGQWREKMWGELMEKCLESMRQGEEAKIHLPGSSAPLAKLRLDSFTNGRDSWEMEAMEKEALAKEEHRRGTELFRAGNPQGAARCYGRALRLLLTLPPPGPPERTTLYANLAACQLLLGHPQLAAQSCDRVLEREPGHLKALYRRGVARAALGDLEKATADFKKVLAVDPKNRAAKEELGKVVIQGRKQDAGLARGLRKMFS

More lines, now with the values behind:

Molecule | binding [1] | binding [2] | binding [3]
mouse FKBP8 (Flag-tagged) (from UniProt O35465 1-402) | binds | binds | 
human FKBP4 (protein, UniProt Q02790 1-459) MTAEEMKATESGAQSAPLPMEGVDISPKQDEGVLKVIKREGTGTEMPMIGDRVFVHYTGWLLDGTKFDSSLDRKDKFSFDLGKGEVIKAWDIAIATMKVGEVCHITCKPEYAYGSAGSPPKIPPNATLVFEVELFEFKGEDLTEEEDGGIIRRIQTRGEGYAKPNEGAIVEVALEGYYKDKLFDQRELRFEIGEGENLDLPYGLERAIQRMEKGEHSIVYLKPSYAFGSVGKEKFQIPPNAELKYELHLKSFEKAKESWEMNSEEKLEQSTIVKERGTVYFKEGKYKQALLQYKKIVSWLEYESSFSNEEAQKAQALRLASHLNLAMCHLKLQAFSAAIESCNKALELDSNNEKGLFRRGEAHLAVNDFELARADFQKVLQLYPNNKAAKTQLAVCQQRIRRQLAREKKLYANMFERLAEEENKAKAEASSGDHPTDTEMKEEQKSNTAGSQSQVETEA |  |  | no binding
